Assay results taken from patent US12168055B2, “Sonosensitization” (priority 2019, dated 2024).

System: C6 glioma tumor cells
Conditions: 5-ALA 20 mg/kg, sonication at 13.8 W/cm^2, 20 min

NCC(=O)CCC(=O)O [5-ALA, 5-aminolevulinic acid]
rise of tumor temperature: about 2 °C
tumor temperature: 32 °C
